Data from the supplement of paper PMC6411743.
± gives the standard deviation of the averaged measurements. The entries are a selection whose mix differs from that of the whole data set. Most entries show no effect beyond the scatter of the controls.

Protein sequences, listed by entry. Tags and fused reporters are not part of them. Lines headed by an entry give the natural chain unless they say otherwise; changes in a name come on top.
UniProt O15117, whole entry: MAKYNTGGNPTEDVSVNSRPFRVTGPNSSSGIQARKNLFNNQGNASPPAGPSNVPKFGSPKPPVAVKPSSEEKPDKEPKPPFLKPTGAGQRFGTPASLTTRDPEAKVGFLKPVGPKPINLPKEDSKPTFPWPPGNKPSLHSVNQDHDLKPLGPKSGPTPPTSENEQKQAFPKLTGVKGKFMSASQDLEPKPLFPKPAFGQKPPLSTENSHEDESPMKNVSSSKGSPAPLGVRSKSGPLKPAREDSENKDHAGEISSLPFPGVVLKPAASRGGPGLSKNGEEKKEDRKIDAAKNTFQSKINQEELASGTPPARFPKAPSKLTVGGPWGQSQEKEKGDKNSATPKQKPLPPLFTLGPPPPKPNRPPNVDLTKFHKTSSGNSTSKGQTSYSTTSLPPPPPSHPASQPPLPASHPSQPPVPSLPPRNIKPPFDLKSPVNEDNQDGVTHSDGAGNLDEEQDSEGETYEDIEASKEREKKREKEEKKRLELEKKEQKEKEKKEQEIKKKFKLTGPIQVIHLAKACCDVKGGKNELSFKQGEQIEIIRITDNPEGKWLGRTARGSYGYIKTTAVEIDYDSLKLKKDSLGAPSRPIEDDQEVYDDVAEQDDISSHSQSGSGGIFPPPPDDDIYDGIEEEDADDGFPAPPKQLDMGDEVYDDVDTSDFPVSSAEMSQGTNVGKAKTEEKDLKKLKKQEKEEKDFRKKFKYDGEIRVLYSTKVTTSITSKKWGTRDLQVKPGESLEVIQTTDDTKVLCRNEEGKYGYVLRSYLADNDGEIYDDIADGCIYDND
UniProt Q15831: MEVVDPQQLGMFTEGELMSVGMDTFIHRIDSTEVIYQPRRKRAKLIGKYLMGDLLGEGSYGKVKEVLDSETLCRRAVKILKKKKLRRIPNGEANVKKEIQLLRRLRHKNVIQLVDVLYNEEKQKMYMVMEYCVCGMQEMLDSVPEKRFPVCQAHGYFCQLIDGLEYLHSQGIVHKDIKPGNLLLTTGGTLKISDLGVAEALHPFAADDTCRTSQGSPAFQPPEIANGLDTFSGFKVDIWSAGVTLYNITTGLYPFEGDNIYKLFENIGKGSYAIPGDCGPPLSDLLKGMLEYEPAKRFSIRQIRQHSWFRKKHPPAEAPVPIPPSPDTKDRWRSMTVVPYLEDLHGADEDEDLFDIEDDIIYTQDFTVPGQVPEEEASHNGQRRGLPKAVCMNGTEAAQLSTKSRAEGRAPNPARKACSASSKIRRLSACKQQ
UniProt O43567: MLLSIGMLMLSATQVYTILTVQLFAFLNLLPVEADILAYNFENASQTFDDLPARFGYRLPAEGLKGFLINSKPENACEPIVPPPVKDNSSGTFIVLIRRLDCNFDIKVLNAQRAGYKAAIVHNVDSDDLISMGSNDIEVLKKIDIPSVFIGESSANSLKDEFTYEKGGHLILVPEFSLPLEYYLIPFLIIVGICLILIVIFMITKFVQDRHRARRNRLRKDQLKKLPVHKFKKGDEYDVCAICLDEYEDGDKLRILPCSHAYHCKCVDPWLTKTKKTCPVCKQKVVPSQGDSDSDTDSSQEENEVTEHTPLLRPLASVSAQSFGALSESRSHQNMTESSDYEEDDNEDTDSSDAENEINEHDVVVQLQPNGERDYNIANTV
UniProt O43395: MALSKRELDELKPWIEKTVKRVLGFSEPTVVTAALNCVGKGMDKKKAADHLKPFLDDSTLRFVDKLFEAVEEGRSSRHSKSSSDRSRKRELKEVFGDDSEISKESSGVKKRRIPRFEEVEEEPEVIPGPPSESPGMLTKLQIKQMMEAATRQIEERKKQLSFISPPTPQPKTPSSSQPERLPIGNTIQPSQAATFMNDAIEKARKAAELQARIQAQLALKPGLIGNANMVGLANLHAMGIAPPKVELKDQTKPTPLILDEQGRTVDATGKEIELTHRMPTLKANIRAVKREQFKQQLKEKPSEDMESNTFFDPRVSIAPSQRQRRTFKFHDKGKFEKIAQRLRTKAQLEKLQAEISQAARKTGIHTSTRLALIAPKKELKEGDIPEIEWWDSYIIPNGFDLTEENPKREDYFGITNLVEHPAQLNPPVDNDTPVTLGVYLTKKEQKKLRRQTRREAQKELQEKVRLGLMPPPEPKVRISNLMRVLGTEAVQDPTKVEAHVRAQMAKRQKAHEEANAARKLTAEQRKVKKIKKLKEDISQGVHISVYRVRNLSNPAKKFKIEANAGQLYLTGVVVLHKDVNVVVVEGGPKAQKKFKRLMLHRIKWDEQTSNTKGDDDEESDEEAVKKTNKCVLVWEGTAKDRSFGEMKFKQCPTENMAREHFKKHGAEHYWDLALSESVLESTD
UniProt O43896: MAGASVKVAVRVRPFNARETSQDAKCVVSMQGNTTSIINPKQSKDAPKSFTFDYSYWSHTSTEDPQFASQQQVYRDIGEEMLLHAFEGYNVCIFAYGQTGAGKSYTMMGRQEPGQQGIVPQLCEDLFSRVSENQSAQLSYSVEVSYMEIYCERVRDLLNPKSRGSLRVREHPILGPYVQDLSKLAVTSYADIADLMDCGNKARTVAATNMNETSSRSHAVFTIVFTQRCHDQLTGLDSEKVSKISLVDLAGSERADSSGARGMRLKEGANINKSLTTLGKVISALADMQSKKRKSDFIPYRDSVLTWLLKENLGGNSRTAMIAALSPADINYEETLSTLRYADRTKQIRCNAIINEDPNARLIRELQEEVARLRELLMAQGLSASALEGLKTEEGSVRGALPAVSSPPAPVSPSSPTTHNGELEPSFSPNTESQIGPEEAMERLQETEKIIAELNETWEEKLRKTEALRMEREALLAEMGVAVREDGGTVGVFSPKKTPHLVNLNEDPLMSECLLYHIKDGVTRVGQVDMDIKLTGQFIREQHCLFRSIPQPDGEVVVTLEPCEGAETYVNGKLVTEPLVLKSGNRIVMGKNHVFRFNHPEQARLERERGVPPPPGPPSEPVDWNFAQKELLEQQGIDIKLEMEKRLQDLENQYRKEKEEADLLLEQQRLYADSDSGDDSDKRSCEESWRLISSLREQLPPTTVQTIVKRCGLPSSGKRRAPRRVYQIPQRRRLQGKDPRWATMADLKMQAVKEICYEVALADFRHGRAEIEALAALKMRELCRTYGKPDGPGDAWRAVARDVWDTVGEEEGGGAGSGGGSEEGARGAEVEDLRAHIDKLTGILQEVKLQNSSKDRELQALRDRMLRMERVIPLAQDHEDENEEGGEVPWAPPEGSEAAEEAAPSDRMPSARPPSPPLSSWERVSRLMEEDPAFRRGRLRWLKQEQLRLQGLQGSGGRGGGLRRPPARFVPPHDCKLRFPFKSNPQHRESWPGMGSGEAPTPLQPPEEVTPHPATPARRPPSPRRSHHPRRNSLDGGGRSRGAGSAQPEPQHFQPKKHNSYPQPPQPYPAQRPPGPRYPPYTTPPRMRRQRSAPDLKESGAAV
UniProt P04350, whole entry: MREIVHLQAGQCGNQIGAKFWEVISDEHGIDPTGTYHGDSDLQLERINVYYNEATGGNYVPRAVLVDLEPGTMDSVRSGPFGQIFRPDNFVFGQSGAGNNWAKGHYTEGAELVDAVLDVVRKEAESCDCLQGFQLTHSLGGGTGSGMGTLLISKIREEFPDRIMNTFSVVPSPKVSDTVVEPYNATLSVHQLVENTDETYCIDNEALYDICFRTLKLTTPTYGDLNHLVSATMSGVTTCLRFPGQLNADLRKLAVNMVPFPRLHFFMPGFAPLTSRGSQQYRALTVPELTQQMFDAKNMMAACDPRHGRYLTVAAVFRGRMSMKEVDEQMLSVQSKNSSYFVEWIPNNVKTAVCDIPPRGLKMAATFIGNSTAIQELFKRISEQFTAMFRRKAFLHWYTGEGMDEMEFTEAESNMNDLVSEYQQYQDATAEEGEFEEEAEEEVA
UniProt P27797, whole entry: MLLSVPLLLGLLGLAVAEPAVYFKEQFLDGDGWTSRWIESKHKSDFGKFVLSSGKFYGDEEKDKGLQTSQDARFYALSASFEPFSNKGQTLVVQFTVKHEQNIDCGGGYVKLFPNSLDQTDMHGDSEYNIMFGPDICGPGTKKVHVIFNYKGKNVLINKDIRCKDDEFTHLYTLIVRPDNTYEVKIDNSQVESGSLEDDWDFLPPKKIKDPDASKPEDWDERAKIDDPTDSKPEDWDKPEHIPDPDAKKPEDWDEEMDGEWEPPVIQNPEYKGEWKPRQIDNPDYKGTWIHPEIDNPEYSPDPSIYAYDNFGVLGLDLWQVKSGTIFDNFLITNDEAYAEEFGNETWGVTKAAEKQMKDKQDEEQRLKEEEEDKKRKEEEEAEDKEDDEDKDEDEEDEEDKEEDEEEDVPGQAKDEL
UniProt Q8NBT2: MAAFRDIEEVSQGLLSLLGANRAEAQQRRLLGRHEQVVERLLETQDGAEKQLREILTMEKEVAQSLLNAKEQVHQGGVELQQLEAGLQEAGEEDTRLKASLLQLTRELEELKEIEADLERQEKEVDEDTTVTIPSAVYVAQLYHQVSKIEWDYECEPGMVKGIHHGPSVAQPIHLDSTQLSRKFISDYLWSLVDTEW
UniProt O43488: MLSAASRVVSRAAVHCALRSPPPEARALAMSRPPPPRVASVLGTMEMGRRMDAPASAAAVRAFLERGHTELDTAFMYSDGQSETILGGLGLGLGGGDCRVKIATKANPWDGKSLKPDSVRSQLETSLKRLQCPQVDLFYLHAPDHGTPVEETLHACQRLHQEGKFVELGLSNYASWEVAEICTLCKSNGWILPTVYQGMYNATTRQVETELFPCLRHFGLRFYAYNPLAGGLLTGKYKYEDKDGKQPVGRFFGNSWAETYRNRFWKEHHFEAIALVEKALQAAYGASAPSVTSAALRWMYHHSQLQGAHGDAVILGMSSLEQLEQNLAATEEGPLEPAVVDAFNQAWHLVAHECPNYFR
UniProt Q96EP5: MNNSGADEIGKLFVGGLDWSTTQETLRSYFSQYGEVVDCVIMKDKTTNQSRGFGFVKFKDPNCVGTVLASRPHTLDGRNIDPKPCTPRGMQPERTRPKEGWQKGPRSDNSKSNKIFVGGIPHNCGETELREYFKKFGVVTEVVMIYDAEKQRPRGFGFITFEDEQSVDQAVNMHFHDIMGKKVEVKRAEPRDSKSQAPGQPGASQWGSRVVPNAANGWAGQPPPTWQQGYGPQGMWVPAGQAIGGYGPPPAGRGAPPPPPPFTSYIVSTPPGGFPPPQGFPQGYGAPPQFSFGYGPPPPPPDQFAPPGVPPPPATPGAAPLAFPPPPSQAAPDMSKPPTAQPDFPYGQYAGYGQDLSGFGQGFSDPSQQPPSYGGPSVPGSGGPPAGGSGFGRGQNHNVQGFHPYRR
UniProt O43290: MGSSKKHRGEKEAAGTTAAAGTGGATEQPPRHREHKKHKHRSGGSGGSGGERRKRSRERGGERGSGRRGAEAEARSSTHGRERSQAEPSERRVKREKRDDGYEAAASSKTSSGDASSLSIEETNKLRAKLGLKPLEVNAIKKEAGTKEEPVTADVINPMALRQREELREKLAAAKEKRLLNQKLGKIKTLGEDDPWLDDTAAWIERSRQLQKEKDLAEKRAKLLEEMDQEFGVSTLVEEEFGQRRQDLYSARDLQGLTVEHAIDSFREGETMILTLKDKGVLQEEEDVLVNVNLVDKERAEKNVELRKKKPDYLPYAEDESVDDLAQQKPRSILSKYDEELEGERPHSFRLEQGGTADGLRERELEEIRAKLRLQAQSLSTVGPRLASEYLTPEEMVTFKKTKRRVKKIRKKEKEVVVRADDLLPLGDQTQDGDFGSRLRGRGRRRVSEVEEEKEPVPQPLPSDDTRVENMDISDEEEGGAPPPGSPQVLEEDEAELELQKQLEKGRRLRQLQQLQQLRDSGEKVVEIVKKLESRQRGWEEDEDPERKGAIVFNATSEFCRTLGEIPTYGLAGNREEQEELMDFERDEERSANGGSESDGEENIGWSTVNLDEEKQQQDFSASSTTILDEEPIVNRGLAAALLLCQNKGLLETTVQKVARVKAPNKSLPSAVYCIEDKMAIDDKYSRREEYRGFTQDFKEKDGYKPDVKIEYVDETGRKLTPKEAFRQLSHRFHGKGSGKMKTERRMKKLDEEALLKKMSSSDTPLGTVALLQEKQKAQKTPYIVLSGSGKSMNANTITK
UniProt O15305: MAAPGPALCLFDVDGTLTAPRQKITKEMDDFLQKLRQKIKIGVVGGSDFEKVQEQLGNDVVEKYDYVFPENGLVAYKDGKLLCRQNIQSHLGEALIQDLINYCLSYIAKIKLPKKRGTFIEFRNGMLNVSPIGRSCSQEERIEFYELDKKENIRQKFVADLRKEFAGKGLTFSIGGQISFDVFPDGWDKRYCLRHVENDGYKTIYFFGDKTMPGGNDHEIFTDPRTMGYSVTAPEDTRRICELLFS
UniProt O14908: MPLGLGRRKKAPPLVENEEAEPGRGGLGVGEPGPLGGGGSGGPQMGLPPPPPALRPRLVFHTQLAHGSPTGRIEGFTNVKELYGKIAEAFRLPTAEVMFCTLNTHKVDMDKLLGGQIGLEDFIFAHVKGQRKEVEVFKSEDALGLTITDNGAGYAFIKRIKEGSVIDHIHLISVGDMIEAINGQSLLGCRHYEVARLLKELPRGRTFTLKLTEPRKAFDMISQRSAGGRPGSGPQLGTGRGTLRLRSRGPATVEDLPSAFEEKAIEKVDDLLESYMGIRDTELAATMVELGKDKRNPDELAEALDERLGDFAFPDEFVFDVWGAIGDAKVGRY

Compound: Nc1ncnc2c1ncn2[C@@H]1O[C@H](COP(=O)(O)OP(=O)(O)NP(=O)(O)O)[C@@H](O)[C@H]1O [adenylyl imidodiphosphate]
Experiment: NP40-soluble protein abundance relative to vehicle (solubility fold change) (ratio); higher = more soluble protein in presence of AMP-PNP
Summary of the method: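 Each value is a fold change relative to the detergent-processed vehicle, calculated per replicate from vsn-normalised intensities. Jurkat crude lysate received eight concentrations (0.1 to 10 mM) for 10 min at room temperature and 3 min at 37 °C, then was solubilised in 0.8% NP40 with benzonase (60 min, 4 °C). The ultracentrifuged supernatant was TMT-labelled and run by LC-MS/MS in three independent experiments.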

| Target | NP40-soluble protein abundance (concentration: 0.1mM) | NP40-soluble protein abundance (concentration: 0.5mM) |
| --- | --- | --- |
| UniProt O15173 and related entries | 0.9821 ± 0.0078 | 0.994 ± 0.048 |
| M0QZR4 (UniProt Q92888) | 1.012 ± 0.0059 | 1 ± 0.026 |
| UniProt O15258 and related entries | 1.03 ± 0.042 | 1.06 ± 0.04 |
| UniProt O15117 and related entries | 1.02 ± 0.071 | 1.05 ± 0.12 |
| M0R0F0 and related entries (UniProt P46782) | 1.05 ± 0.019 | 1.04 ± 0.081 |
| K7EP59 and related entries (UniProt Q15831) | 1.02 ± 0.032 | 1.0283 ± 0.00083 |
| M0R0P7 and related entries (UniProt Q02543) | 1.028 ± 0.0081 | 1.01 ± 0.045 |
| M0R2A0 and related entries (UniProt Q5UCC4) | 1.02 ± 0.024 | 0.978 ± 0.04 |
| GNPAT (UniProt O15228) | 1.02 ± 0.039 | 0.969 ± 0.07 |
| CBX4 (UniProt O00257) | 0.9943 ± 0.0042 | 0.986 ± 0.011 |
| K7ELL7 and related entries (UniProt P14314) | 0.992 ± 0.025 | 1.03 ± 0.077 |
| UniProt O43813 and related entries | 1.01 ± 0.023 | 0.984 ± 0.041 |
| SUPT5H (UniProt O00267) | 1.05 ± 0.064 | 0.997 ± 0.045 |
| SETD1A (UniProt O15047) | 0.983 ± 0.033 | 0.993 ± 0.053 |
| PFDN6 (UniProt O15212) | 0.969 ± 0.04 | 0.955 ± 0.035 |
| UniProt O43566 and related entries | 1.01 ± 0.048 | 1.02 ± 0.042 |
| M0R0H0 and related entries (UniProt P55899) | 1 ± 0.042 | 0.986 ± 0.028 |
| K7EQS2 and related entries (UniProt Q96C34) | 0.991 ± 0.027 | 0.989 ± 0.0098 |
| UniProt O15085 and related entries | 1.04 ± 0.043 | 1.02 ± 0.029 |
| K7EJH8 and related entries (UniProt O43707) | 0.9865 ± 0.0086 | 1.04 ± 0.032 |
| K7ENF0 and related entries (UniProt O43776) | 0.981 ± 0.049 | 0.972 ± 0.037 |
| UniProt O00410 and related entries | 0.979 ± 0.018 | 0.999 ± 0.036 |
| UniProt O14787-2 | 1.05 ± 0.032 | 1.03 ± 0.025 |
| K7ER90 and related entries (UniProt O75821) | 1.02 ± 0.061 | 1.05 ± 0.054 |
| PPIH (UniProt O43447) | 0.992 ± 0.031 | 0.97 ± 0.058 |
| UniProt O00165 and related entries | 1.01 ± 0.022 | 0.984 ± 0.042 |
| RNF13 (UniProt O43567) | 0.976 ± 0.053 | 0.975 ± 0.056 |

| Target | NP40-soluble protein abundance (concentration: 0.1mM) | NP40-soluble protein abundance (concentration: 0.5mM) |
| --- | --- | --- |
| PSMD11 (UniProt O00231) | 0.987 ± 0.017 | 0.929 ± 0.044 |
| UniProt O00139 and related entries | 1.09 ± 0.037 | 1.09 ± 0.034 |
| UniProt O14966 and related entries | 0.988 ± 0.013 | 0.98 ± 0.026 |
| UniProt O00409 and related entries | 0.986 ± 0.018 | 1.023 ± 0.0091 |
| PSMD3 (UniProt O43242) | 1.01 ± 0.017 | 0.985 ± 0.072 |
| PRPF3 (UniProt O43395) | 1.04 ± 0.02 | 1.02 ± 0.023 |
| NPC1 (UniProt O15118) | 1.01 ± 0.026 | 0.989 ± 0.012 |
| NDUFS4 (UniProt O43181) | 0.978 ± 0.068 | 0.978 ± 0.038 |
| M0QWZ7 and related entries (UniProt Q9NP81) | 1.03 ± 0.033 | 0.996 ± 0.015 |
| KIF1C (UniProt O43896) | 0.9502 ± 0.0027 | 0.98262 ± 0.00026 |
| M0QYM7 and related entries (UniProt P04350) | 1.01 ± 0.04 | 1.02 ± 0.028 |
| UniProt O00115 and related entries | 0.927 ± 0.017 | 1.01 ± 0.041 |
| K7EJB9 and related entries (UniProt P27797) | 0.975 ± 0.026 | 0.994 ± 0.064 |
| K7ESQ2 and related entries (UniProt Q8NBT2) | 0.969 ± 0.082 | 0.981 ± 0.056 |
| UniProt O43488 and related entries | 1.03 ± 0.075 | 1.03 ± 0.022 |
| UniProt O43822 and related entries | 0.983 ± 0.028 | 1.007 ± 0.0082 |
| XPO1 (UniProt O14980) | 0.985 ± 0.067 | 0.974 ± 0.071 |
| K7EK78 and related entries (UniProt Q86Y39+K7EQ77+K7EP35+K7EMT4+K7EK78) | 0.9955 ± 0.0092 | 1 ± 0.022 |
| TAX1BP3 (UniProt O14907) | 1.01 ± 0.014 | 1.02 ± 0.058 |
| K7EK33 and related entries (UniProt Q96EP5) | 0.991 ± 0.018 | 1.03 ± 0.057 |
| B4GAT1 (UniProt O43505) | 0.992 ± 0.047 | 0.993 ± 0.014 |
| K7ERI7 and related entries (UniProt P35268) | 1.01 ± 0.02 | 1.02 ± 0.017 |
| SART1 (UniProt O43290) | 1.03 ± 0.026 | 1.05 ± 0.052 |
| PMM2 (UniProt O15305) | 0.9987 ± 0.00091 | 1.01 ± 0.017 |
| GIPC1 (UniProt O14908) | 1 ± 0.019 | 0.999 ± 0.027 |
| MPHOSPH10 (UniProt O00566) | 0.986 ± 0.048 | 1.02 ± 0.083 |

Reformatted: results already given.
Target | NP40-soluble protein abundance (concentration: 0.1mM) | NP40-soluble protein abundance (concentration: 0.5mM)
CBX4 (UniProt O00257) | 0.9943 ± 0.0042 | 0.986 ± 0.011
K7ELL7 and related entries (UniProt P14314) | 0.992 ± 0.025 | 1.03 ± 0.077
UniProt O43813 and related entries | 1.01 ± 0.023 | 0.984 ± 0.041
SUPT5H (UniProt O00267) | 1.05 ± 0.064 | 0.997 ± 0.045
SETD1A (UniProt O15047) | 0.983 ± 0.033 | 0.993 ± 0.053
PFDN6 (UniProt O15212) | 0.969 ± 0.04 | 0.955 ± 0.035
UniProt O43566 and related entries | 1.01 ± 0.048 | 1.02 ± 0.042
M0R0H0 and related entries (UniProt P55899) | 1 ± 0.042 | 0.986 ± 0.028
K7EQS2 and related entries (UniProt Q96C34) | 0.991 ± 0.027 | 0.989 ± 0.0098
UniProt O15085 and related entries | 1.04 ± 0.043 | 1.02 ± 0.029
K7EJH8 and related entries (UniProt O43707) | 0.9865 ± 0.0086 | 1.04 ± 0.032
K7ENF0 and related entries (UniProt O43776) | 0.981 ± 0.049 | 0.972 ± 0.037
UniProt O00410 and related entries | 0.979 ± 0.018 | 0.999 ± 0.036
UniProt O14787-2 | 1.05 ± 0.032 | 1.03 ± 0.025
K7ER90 and related entries (UniProt O75821) | 1.02 ± 0.061 | 1.05 ± 0.054
